From PubChem BioAssay (NCATS) come the findings set out here.

The other results are listed elsewhere or left out. Shown are side measurements of this screen, not its main read-out; they come without a call. The list favours compounds with an active or inconclusive main result. The note in brackets gives the kind of curve behind each potency; many fits are weak.

The nature of one experiment: S16 Schwann cell PMP22 intronic element beta-lactamase assay (AID 624044). The conditions noted are these: S16 rat Schwann cells, PMP22 element beta-lactamase FRET, 24 h; measured here: 460 nm blue channel. Put shortly: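 Beta-lactamase reporter under a PMP22 intronic regulatory element in stable S16 rat Schwann cells; 24 h compound exposure. 460 nm blue signal normalized between DMSO (0%) and potassium clavulanate, with 535 nm FRET tracking viability; curves classed by r2 and response.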
For the compound `CCCCCCCCCc1ccc(OCCOCCOCCOCCOCCOCCOCCOCCOCCO)cc1`, the AC50 – broadly, the midpoint of the concentration-response curve, whichever way the signal moves – is 22.4 µM [falling, partial curve, poor fit]. In the case of `CCCCCc1cc(O)c2c(c1)OC(C)(C)C1CC=C(C)CC21` (centres undefined), the AC50 was 12.6 µM [rising, partial curve]. Still for that read-out and setting: in the case of `O=[N+]([O-])c1ccc([As](=O)(O)O)cc1` it was 2.24 µM [falling, full curve, poor fit].

Staying with this experiment, now noted: S16 rat Schwann cells, PMP22 element beta-lactamase FRET, 24 h; measured here: 530 nm viability channel.
For the compound `O=c1ccc2cc(O[C@H]3O[C@@H](CO)[C@@H](O)[C@@H](O)[C@@H]3O)c(O)cc2o1`, the AC50 was 5.01 µM [rising, full curve]. Same read-out and setting: in the case of `CO[C@@H](COC(N)=O)C1=C(N2CC2)C(=O)C(C)=C(N2CC2)C1=O` it was 0.355 µM [rising, full curve]; in that of `C=CCN1CC[C@]23c4c5ccc(O)c4O[C@H]2[C@@H](O)C=C[C@H]3[C@H]1C5`, 2 µM [falling, partial curve]. Still for that read-out and setting: the figure for `CCC1(c2ccccc2)C(=O)NC(=O)N(C)C1=O` (centres undefined) is 31.6 µM [rising, single point]. The same measure, in the same setting: the figure for `CNC(=O)Oc1ccc2c(c1)[C@]1(C)CCN(C)[C@@H]1N2C` is 31.6 µM [falling, single point]; for `NC(=O)CS(=O)C(c1ccccc1)c1ccccc1` (centres undefined) it is 31.6 µM [falling, single point]; for `Oc1cccc[c]1[Hg][Cl]` it is 3.98 µM [rising, full curve].

For `CNC(=O)NC(O)C(Cl)(Cl)Cl` (centres undefined), the AC50 is 12.6 µM [falling, single point]. Consider `C[C@H](CCCC(C)(C)O)[C@H]1CC[C@H]2[C@@H]3CC=C4C[C@@H](O)CC[C@]4(C)[C@H]3CC[C@]12C`, for which the AC50 was 11.2 µM [rising, partial curve]. The same measure, in the same setting: the figure for `CCN(CC)C(=O)/C(Cl)=C(\C)OP(=O)(OC)OC` is 0.316 µM [falling, partial curve]; for `CCCCCC(O)C1C(=O)OC(C)C(O)\C=C/C=C\C=C/C=C\C=C(\C)C(O)C(O)C(O)CC(O)CC(O)CC(O)CC(O)CC1O` (centres undefined) it is 2 µM [falling, full curve, poor fit].
